Results are given in words; binding and its absence hold for the method and conditions named. Some results given as binding are weak or reduced against the parent protein; the word gives no strength.

For one molecule, binding results are on record in paper PMC12462666.

The target of the test is T1, RecA (E. coli), P0A7G6.
T1 chain: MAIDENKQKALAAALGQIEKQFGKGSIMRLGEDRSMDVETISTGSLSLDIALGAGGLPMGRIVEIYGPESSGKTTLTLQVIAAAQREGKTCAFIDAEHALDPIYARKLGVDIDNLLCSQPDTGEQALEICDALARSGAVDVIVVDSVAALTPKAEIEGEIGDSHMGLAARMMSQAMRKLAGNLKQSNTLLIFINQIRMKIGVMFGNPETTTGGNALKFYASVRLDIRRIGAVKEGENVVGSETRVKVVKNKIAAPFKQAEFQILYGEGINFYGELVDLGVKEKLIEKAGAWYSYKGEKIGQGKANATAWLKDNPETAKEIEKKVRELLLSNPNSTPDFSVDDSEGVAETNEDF
Put plainly: two-hybrid; bacterial two-hybrid (BACTH, Euromedex): T18 and T25 fragments of adenylate cyclase CyaA in E. coli BTH101; N- and C-terminal fusions; beta-galactosidase activity (ONPG, OD405) normalised to the positive control pKT25-zip + pUT18C-zip; cells grown with 0.5 uM IPTG. To be noted: remark: other sources report otherwise.

B1: RecN, P05824 1-553 (protein)
chain: MLAQLTISNFAIVRELEIDFHSGMTVITGETGAGKSIAIDALGLCLGGRAEADMVRTGAARADLCARFSLKDTPAALRWLEENQLEDGHECLLRRVISSDGRSRGFINGTAVPLSQLRELGQLLIQIHGQHAHQLLTKPEHQKFLLDGYANETSLLQEMTARYQLWHQSCRDLAHHQQLSQERAARAELLQYQLKELNEFNPQPGEFEQIDEEYKRLANSGQLLTTSQNALALMADGEDANLQSQLYTAKQLVSELIGMDSKLSGVLDMLEEATIQIAEASDELRHYCDRLDLDPNRLFELEQRISKQISLARKHHVSPEALPQYYQSLLEEQQQLDDQADSQETLALAVTKHHQQALEIARALHQQRQQYAEELAQLITDSMHALSMPHGQFTIDVKFDEHHLGADGADRIEFRVTTNPGQPMQPIAKVASGGELSRIALAIQVITARKMETPALIFDEVDVGISGPTAAVVGKLLRQLGESTQVMCVTHLPQVAGCGHQHYFVSKETDGAMTETHMQSLNKKARLQELARLLGGSEVTRNTLANAKELLAA
On to B1, for which the binding result is given as “binds”.
